Results published in patent US11241440B2, “Dihydrooxadiazine compounds for treating infections and cancer” (VALORALIA I MÁS D, SL, priority 2016, dated 2022).

Test system: Candida parapsilosis
Experiment: EUCAST broth dilution antifungal susceptibility test (MIC)
Type: cell-based
Settings: 50% inhibition, 24 hours at 35° C., dilution range 64 to 0.12 mg/l
Procedure: Filamentous fungi and yeasts strains, from clinical origin, were supplied by Microbiology Service from The Princess Hospital, Madrid. They are detailed in Table III. Filamentous fungi and yeast cells suspensions in distilled water was prepared from a culture of 24-48 h, depending on species, in Sabouraud agar. Each suspension was adjusted to a fixed size inoculum of 1-5×10^8 CFU/ml with a spectrophotometer (Ferraro, M J National Committee for Clinical Laboratory Standards. 2000). Antifungal susceptibility tests were developed following the standardized methodology detailed by the European Committee on Antimicrobial Susceptibility Testing (EUCAST) documents 7.2 (method for the determination of broth dilution minimum inhibitory concentrations of antifungal agents for yeasts EDef 7.2) and 9.2 (Method for the determination of broth dilution minimum inhibitory concentrations of antifungal agents for conidia forming foulds). The compound was dissolved in DMSO and diluted with RPMI plates with 2% glucose to pH 7 with MOPS buffer. […] Plates were inoculated with a yeast suspension or filamentous fungal spores (1-5×10^5 cls/ml). The results were evaluated after 24 hours incubation at 35° C. and absorbance reading at 530 nm.

Q: For OC(Cn1cncn1)(Cn1cncn1)c1ccc(F)cc1F [Fluconazole], which “MIC (minimum inhibitory concentration)” value is on record?
A: 1
